This note sets out measurements from publication PMC8976838.

By UniProt entry, the sequences of proteins in these tests, tags left out. Where a name states a change or a piece, a line headed by the entry shows the natural chain unless it says otherwise. Residues count along the entry.
UniProt O43293: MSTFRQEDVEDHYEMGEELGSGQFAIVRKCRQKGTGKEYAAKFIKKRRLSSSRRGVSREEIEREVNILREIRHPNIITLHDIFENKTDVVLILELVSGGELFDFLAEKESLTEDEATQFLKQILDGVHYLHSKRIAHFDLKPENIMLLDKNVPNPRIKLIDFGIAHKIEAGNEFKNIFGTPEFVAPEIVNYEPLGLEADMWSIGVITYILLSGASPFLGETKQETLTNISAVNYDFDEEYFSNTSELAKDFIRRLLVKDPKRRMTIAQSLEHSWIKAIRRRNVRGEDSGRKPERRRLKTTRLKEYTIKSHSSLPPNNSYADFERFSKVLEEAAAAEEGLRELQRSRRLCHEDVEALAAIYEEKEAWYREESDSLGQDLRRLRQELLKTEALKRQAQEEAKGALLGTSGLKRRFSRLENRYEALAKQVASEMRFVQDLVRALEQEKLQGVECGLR
UniProt Q05086: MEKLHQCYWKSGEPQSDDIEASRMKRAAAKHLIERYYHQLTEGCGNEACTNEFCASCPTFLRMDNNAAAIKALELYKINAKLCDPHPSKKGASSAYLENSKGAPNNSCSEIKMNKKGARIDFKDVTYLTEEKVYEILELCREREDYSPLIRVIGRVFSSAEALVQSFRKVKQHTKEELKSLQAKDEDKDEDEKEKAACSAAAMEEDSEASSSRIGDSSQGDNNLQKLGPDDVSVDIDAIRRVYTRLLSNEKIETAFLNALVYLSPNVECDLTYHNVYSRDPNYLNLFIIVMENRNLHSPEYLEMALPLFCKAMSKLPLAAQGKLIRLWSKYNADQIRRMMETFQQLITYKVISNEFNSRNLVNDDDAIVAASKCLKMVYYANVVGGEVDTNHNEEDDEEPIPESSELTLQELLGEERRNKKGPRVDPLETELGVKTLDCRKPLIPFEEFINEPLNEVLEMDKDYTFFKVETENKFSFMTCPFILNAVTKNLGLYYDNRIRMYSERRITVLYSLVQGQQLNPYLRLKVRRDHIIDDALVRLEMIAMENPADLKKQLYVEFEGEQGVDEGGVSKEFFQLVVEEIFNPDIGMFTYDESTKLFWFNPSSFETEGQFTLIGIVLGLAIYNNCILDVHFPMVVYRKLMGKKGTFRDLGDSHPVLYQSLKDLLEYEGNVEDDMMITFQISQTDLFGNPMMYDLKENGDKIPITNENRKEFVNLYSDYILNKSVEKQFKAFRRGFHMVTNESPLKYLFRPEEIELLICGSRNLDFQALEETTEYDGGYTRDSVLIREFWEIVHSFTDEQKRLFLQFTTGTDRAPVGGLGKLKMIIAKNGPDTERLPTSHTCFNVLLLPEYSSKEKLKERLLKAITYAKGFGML
GST-UBE3A N-terminus (1–460): residues 1-460 of Q05086
UniProt Q86U86: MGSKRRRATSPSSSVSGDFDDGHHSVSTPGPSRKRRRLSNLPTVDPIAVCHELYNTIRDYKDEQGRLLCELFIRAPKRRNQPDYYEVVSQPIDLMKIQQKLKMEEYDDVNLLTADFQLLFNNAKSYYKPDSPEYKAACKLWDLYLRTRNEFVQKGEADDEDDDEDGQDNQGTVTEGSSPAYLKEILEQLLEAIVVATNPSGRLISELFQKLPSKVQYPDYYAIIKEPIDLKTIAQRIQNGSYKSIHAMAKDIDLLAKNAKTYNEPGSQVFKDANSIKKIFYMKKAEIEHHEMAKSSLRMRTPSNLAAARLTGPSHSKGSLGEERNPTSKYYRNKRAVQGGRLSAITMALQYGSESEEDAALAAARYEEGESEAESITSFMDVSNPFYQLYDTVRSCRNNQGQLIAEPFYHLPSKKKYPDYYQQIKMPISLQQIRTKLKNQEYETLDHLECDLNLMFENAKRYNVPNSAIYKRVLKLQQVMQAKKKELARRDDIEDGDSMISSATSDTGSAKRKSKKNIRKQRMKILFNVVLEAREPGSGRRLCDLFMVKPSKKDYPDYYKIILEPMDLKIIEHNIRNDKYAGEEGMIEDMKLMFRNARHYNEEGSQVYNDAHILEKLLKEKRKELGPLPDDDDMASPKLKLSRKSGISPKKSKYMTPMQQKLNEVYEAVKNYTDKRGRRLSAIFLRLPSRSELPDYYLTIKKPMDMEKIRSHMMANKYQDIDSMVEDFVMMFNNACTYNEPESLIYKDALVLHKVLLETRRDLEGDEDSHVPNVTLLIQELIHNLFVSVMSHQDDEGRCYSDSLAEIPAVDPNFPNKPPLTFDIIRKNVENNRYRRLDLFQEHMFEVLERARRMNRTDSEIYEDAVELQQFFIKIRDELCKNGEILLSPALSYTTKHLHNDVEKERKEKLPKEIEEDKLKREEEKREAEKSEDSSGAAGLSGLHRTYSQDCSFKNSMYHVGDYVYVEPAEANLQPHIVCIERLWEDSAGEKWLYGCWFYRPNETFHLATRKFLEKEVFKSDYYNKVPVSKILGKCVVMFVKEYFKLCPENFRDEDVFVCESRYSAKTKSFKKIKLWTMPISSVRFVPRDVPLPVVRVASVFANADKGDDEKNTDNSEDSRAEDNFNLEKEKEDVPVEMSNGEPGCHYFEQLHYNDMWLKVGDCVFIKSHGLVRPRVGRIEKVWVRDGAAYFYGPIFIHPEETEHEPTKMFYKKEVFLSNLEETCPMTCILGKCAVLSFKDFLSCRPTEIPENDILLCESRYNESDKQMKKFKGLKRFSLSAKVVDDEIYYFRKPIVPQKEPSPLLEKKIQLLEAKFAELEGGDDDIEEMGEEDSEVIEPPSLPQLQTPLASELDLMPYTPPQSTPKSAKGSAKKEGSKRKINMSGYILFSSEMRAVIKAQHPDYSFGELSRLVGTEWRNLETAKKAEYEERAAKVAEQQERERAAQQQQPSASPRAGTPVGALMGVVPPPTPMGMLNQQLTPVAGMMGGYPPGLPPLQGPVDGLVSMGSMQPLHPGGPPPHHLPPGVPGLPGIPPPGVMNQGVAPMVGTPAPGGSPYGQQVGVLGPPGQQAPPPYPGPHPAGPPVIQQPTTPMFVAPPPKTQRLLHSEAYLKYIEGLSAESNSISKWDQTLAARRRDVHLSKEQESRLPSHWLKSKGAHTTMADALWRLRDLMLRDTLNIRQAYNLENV

Assay [1] addresses GST-DAPK3 recombinant protein (UniProt O43293). Description: pull-down; GST-fused recombinant proteins (or GST-EV) as bait, 786-O whole-cell lysates, western blotting; only the target purified. On the technique in general: In western blotting, separated proteins are transferred to a membrane and probed.
The target in assay [2] is DAPK3, endogenous (human (endogenous in 293T, 786-O and ACHN)) (UniProt O43293). Description: co-IP; RIPA lysates of 293T, 786-O or ACHN cells with protein A and G agarose beads and primary antibodies or IgG, 24 h at 4 °C, six washes with 1x TBST, western blotting; for PKA with UBE3A: 786-O cells with shControl or shDAPK3 (72 h) or transfected with DAPK3 plasmids (24 h).
For assay [3], the target named is GST-UBE3A N-terminus (1–460) (UniProt Q05086). Description: pull-down; GST-fused recombinant proteins (or GST-EV) as bait, 786-O whole-cell lysates, western blotting; only the target purified.

No constants are given. Whether binding was seen depends on the method and setting. In cells and extracts the contact can be indirect. Some entries that bind do so weakly or less than the wild type.

As for “ubiquitin-protein ligase E3A (UBE3A), endogenous (from UniProt Q05086 1-875) (enzyme)”, the binding entry in assay [1] and in assay [2] was “binds” throughout.

For the substance “Polybromo 1 (PBRM1), endogenous (from UniProt Q86U86 1-1689)”, in assay [3], the binding result is “binds”.
